Structures are written as SMILES.

This series in a line: Metabolomics of fetal brain at E14.5. The class given is in vivo, C57Bl/6J mice. The note with it: metabolite level in E14.5 fetal brain; for fold of change ABX/SPF: ANOVA contrast ABX/SPF; for fold of change GF/ABX: ANOVA contrast GF/ABX; for fold of change GF/SPF: ANOVA contrast GF/SPF; for fold of change GF/Sp: ANOVA contrast GF/Sp; for fold of change Sp/ABX: ANOVA contrast Sp/ABX; for fold of change Sp/SPF: ANOVA contrast Sp/SPF.

Turning to `Nc1ncnc2c1ncn2[C@@H]1O[C@H](COP(=O)(O)O)[C@@H](O)[C@H]1O` [compound 3472], the “fold of change ABX/SPF” value amounted to 0.98, the “fold of change GF/ABX” value amounted to 1.10, the “fold of change GF/SPF” value stood at 1.07 and the “fold of change GF/Sp” value came out at 1.07. Further, the “fold of change Sp/ABX” value is 1.03 and the “fold of change Sp/SPF” value is listed as 1.01.
On to `Nc1ncnc2c1ncn2[C@@H]1O[C@H](CO)[C@@H](OP(=O)(O)O)[C@H]1O` [compound 3473], for which the “fold of change ABX/SPF” value is reported as 0.78, the “fold of change GF/ABX” value was found to be 1.18, the “fold of change GF/SPF” value was found to be 0.92 and the “fold of change GF/Sp” value worked out at 0.79. For the same molecule, the “fold of change Sp/ABX” value is 1.49 and the “fold of change Sp/SPF” value was 1.16.
In the case of `Nc1ncnc2c1ncn2[C@@H]1O[C@H](CO)[C@@H](O)[C@H]1OP(=O)(O)O` [compound 3474], the “fold of change ABX/SPF” value amounted to 0.83, the “fold of change GF/ABX” value is 1.27, the “fold of change GF/SPF” value was determined as 1.05 and the “fold of change GF/Sp” value was found to be 0.91. Also, the “fold of change Sp/ABX” value is given as 1.40 and the “fold of change Sp/SPF” value is reported as 1.15.
Consider `O=C(O)C[C@H](Nc1ncnc2c1ncn2[C@@H]1O[C@H](COP(=O)(O)O)[C@@H](O)[C@H]1O)C(=O)O` [compound 3478], for which the “fold of change ABX/SPF” value is 0.75, the “fold of change GF/ABX” value is on record as 0.91, the “fold of change GF/SPF” value worked out at 0.69 and the “fold of change GF/Sp” value is listed as 0.94. The “fold of change Sp/ABX” value turned out to be 0.97 and the “fold of change Sp/SPF” value is 0.73.
For the molecule `Nc1ncnc2c1ncn2[C@@H]1O[C@H](CO)[C@@H](O)[C@H]1O` [compound 3479], the “fold of change ABX/SPF” value stood at 0.86, the “fold of change GF/ABX” value came out at 1.23, the “fold of change GF/SPF” value was found to be 1.06 and the “fold of change GF/Sp” value worked out at 1.25. In addition, the “fold of change Sp/ABX” value is given as 0.98 and the “fold of change Sp/SPF” value came out at 0.85.
For the molecule `Cn1cnc2c(ncn2[C@@H]2O[C@H](CO)[C@@H](O)[C@H]2O)c1=N` [compound 3485], the “fold of change ABX/SPF” value is 0.61, the “fold of change GF/ABX” value came out at 1.00, the “fold of change GF/SPF” value is 0.61 and the “fold of change GF/Sp” value turned out to be 0.87. Moreover, the “fold of change Sp/ABX” value worked out at 1.16 and the “fold of change Sp/SPF” value is 0.70.
With `C[C@@H](O)[C@H](NC(=O)Nc1ncnc2c1ncn2[C@@H]1O[C@H](CO)[C@@H](O)[C@H]1O)C(=O)O` [compound 3495], the “fold of change ABX/SPF” value was 0.78, the “fold of change GF/ABX” value is given as 0.99, the “fold of change GF/SPF” value came out at 0.77 and the “fold of change GF/Sp” value is 0.88. Besides, the “fold of change Sp/ABX” value came to 1.12 and the “fold of change Sp/SPF” value is recorded as 0.87.
On to `Nc1ncnc2c1ncn2[C@H]1C[C@H](O)[C@@H](COP(=O)(O)O)O1` [compound 3498], for which the “fold of change ABX/SPF” value worked out at 1.18, the “fold of change GF/ABX” value is recorded as 1.00, the “fold of change GF/SPF” value stood at 1.17 and the “fold of change GF/Sp” value was 1.12. Moreover, the “fold of change Sp/ABX” value is on record as 0.89 and the “fold of change Sp/SPF” value was 1.05.
As to `O=C(O)C[C@H](Nc1ncnc2c1ncn2[C@@H]1O[C@H](CO)[C@@H](O)[C@H]1O)C(=O)O` [compound 3505], the “fold of change ABX/SPF” value is recorded as 0.73, the “fold of change GF/ABX” value is 0.72, the “fold of change GF/SPF” value is recorded as 0.53 and the “fold of change GF/Sp” value is 0.81. Moreover, the “fold of change Sp/ABX” value worked out at 0.89 and the “fold of change Sp/SPF” value worked out at 0.65.
Take `Nc1nc2c(ncn2[C@@H]2O[C@H](COP(=O)(O)OP(=O)(O)O)[C@@H](O)[C@H]2O)c(=O)[nH]1` [compound 3507]: the “fold of change ABX/SPF” value worked out at 0.73, the “fold of change GF/ABX” value worked out at 1.04, the “fold of change GF/SPF” value is listed as 0.76 and the “fold of change GF/Sp” value is reported as 0.92. The “fold of change Sp/ABX” value was 1.13 and the “fold of change Sp/SPF” value is 0.83.
As for `Nc1nc2c(ncn2[C@@H]2O[C@H](COP(=O)(O)O)[C@@H](O)[C@H]2O)c(=O)[nH]1` [compound 3508], the “fold of change ABX/SPF” value turned out to be 0.90, the “fold of change GF/ABX” value was determined as 0.91, the “fold of change GF/SPF” value turned out to be 0.82 and the “fold of change GF/Sp” value turned out to be 0.98. For the same molecule, the “fold of change Sp/ABX” value is 0.92 and the “fold of change Sp/SPF” value is 0.83.
For the molecule `Nc1nc2c(ncn2[C@@H]2O[C@H](CO)[C@@H](O)[C@H]2O)c(=O)[nH]1` [compound 3513], the “fold of change ABX/SPF” value came to 1.05, the “fold of change GF/ABX” value was 0.84, the “fold of change GF/SPF” value came to 0.89 and the “fold of change GF/Sp” value came out at 1.07. Further, the “fold of change Sp/ABX” value is listed as 0.79 and the “fold of change Sp/SPF” value amounted to 0.83.
Consider `Nc1nc2[nH]cnc2c(=O)[nH]1` [compound 3514], for which the “fold of change ABX/SPF” value amounted to 1.07, the “fold of change GF/ABX” value was found to be 0.76, the “fold of change GF/SPF” value was found to be 0.82 and the “fold of change GF/Sp” value is listed as 1.11. The “fold of change Sp/ABX” value is 0.69 and the “fold of change Sp/SPF” value is given as 0.73.
In the case of `Cn1cnc2nc(N)[nH]c(=O)c21` [compound 3516], the “fold of change ABX/SPF” value was 0.69, the “fold of change GF/ABX” value amounted to 0.98, the “fold of change GF/SPF” value is 0.68 and the “fold of change GF/Sp” value worked out at 0.91. Also, the “fold of change Sp/ABX” value is 1.07 and the “fold of change Sp/SPF” value stood at 0.74.
As to `CN(C)c1nc2c(ncn2[C@@H]2O[C@H](CO)[C@@H](O)[C@H]2O)c(=O)[nH]1` [compound 3522], the “fold of change ABX/SPF” value was found to be 0.58, the “fold of change GF/ABX” value worked out at 1.17, the “fold of change GF/SPF” value amounted to 0.68 and the “fold of change GF/Sp” value amounted to 0.89. Besides, the “fold of change Sp/ABX” value stood at 1.32 and the “fold of change Sp/SPF” value came to 0.76.
For `Nc1nc2c(ncn2[C@H]2C[C@H](O)[C@@H](COP(=O)(O)O)O2)c(=O)[nH]1` [compound 3528], the “fold of change ABX/SPF” value is on record as 0.74, the “fold of change GF/ABX” value came out at 0.87, the “fold of change GF/SPF” value came out at 0.64 and the “fold of change GF/Sp” value was 0.76. Moreover, the “fold of change Sp/ABX” value was determined as 1.15 and the “fold of change Sp/SPF” value stood at 0.84.
As for `Nc1nc2c(ncn2[C@H]2C[C@H](O)[C@@H](CO)O2)c(=O)[nH]1` [compound 3530], the “fold of change ABX/SPF” value is given as 0.94, the “fold of change GF/ABX” value was found to be 0.94, the “fold of change GF/SPF” value came out at 0.88 and the “fold of change GF/Sp” value was found to be 0.96. The “fold of change Sp/ABX” value is on record as 0.98 and the “fold of change Sp/SPF” value turned out to be 0.91.
Consider `NC(=O)N[C@@H](CC(=O)O)C(=O)O` [compound 3533], for which the “fold of change ABX/SPF” value is recorded as 1.07, the “fold of change GF/ABX” value came to 1.48, the “fold of change GF/SPF” value amounted to 1.58 and the “fold of change GF/Sp” value turned out to be 1.42. Also, the “fold of change Sp/ABX” value is given as 1.04 and the “fold of change Sp/SPF” value was determined as 1.11.
As for `O=C1CC(C(=O)O)NC(=O)N1` (stereo not drawn) [compound 3534], the “fold of change ABX/SPF” value is 0.89, the “fold of change GF/ABX” value was found to be 2.10, the “fold of change GF/SPF” value was determined as 1.88 and the “fold of change GF/Sp” value is listed as 1.94. The “fold of change Sp/ABX” value worked out at 1.08 and the “fold of change Sp/SPF” value amounted to 0.97.
As to `O=C(O)c1cc(=O)[nH]c(=O)[nH]1` [compound 3535], the “fold of change ABX/SPF” value is reported as 0.81, the “fold of change GF/ABX” value is 1.15, the “fold of change GF/SPF” value stood at 0.94 and the “fold of change GF/Sp” value is listed as 0.95. For the same molecule, the “fold of change Sp/ABX” value amounted to 1.22 and the “fold of change Sp/SPF” value stood at 0.99.
In the case of `O=C(O)c1cc(=O)[nH]c(=O)n1[C@@H]1O[C@H](CO)[C@@H](O)[C@H]1O` [compound 3537], the “fold of change ABX/SPF” value is on record as 0.77, the “fold of change GF/ABX” value is 1.05, the “fold of change GF/SPF” value came out at 0.81 and the “fold of change GF/Sp” value came to 1.00. Further, the “fold of change Sp/ABX” value came out at 1.05 and the “fold of change Sp/SPF” value was determined as 0.81.
Turning to `O=c1ccn([C@@H]2O[C@H](COP(=O)(O)OP(=O)(O)O)[C@@H](O)[C@H]2O)c(=O)[nH]1` [compound 3541], the “fold of change ABX/SPF” value is on record as 0.81, the “fold of change GF/ABX” value is 0.68, the “fold of change GF/SPF” value amounted to 0.55 and the “fold of change GF/Sp” value stood at 0.95. The “fold of change Sp/ABX” value was determined as 0.72 and the “fold of change Sp/SPF” value is listed as 0.58.
As for `O=c1ccn([C@@H]2O[C@H](COP(=O)(O)O)[C@@H](O)[C@H]2O)c(=O)[nH]1` [compound 3542], the “fold of change ABX/SPF” value is listed as 0.99, the “fold of change GF/ABX” value is 1.12, the “fold of change GF/SPF” value came to 1.11 and the “fold of change GF/Sp” value is 1.14. Further, the “fold of change Sp/ABX” value was 0.98 and the “fold of change Sp/SPF” value is given as 0.97.
Consider `O=c1cc[nH]c(=O)[nH]1` [compound 3548], for which the “fold of change ABX/SPF” value amounted to 0.82, the “fold of change GF/ABX” value turned out to be 0.74, the “fold of change GF/SPF” value worked out at 0.61 and the “fold of change GF/Sp” value is on record as 0.90. Besides, the “fold of change Sp/ABX” value was 0.82 and the “fold of change Sp/SPF” value was 0.68.
For the molecule `O=c1[nH]cc([C@@H]2O[C@H](CO)[C@@H](O)[C@H]2O)c(=O)[nH]1` [compound 3549], the “fold of change ABX/SPF” value was determined as 0.80, the “fold of change GF/ABX” value turned out to be 1.06, the “fold of change GF/SPF” value was 0.85 and the “fold of change GF/Sp” value is 0.88. Also, the “fold of change Sp/ABX” value worked out at 1.21 and the “fold of change Sp/SPF” value is on record as 0.97.
